Each number is a percent effect as filed.
The controls that fix the scale are not given in the record; negative values are as filed.
The compounds are a random part of those screened.

Mtb growth Cornell: 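Whole-cell assay for inhibitors of Mycobacterium tuberculosis growth, labelled Cornell in the record; the read-out is not stated. The concentration is filed as 10 mM, unlikely as a test dose, so the dose is not known. The record gives no direction; compounds strong in two other growth screens of this library score well above the rest, so higher reads as stronger inhibition. Size under these conditions: about 53,000 compounds, about 900 of them at 50% or above in at least one test.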
Mtb heat-shock: 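Assay on Mycobacterium tuberculosis, filed only as a heat shock assay from Cornell; the read-out is not stated. The concentration is filed as 10 mM, unlikely as a test dose, so the dose is not known. Higher reads as stronger inhibition (inferred: compounds with an IC50 in retests scored well above the rest). About 69,000 compounds were tested under these conditions; 1.4% (about 930) showed 50% or more at least once.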

structure: CCC(NC(=O)C1CCN(S(C)(=O)=O)CC1)c1ccc(C)c(C)c1 (stereo unspecified)
Mtb growth Cornell: 14.37%
Mtb heat-shock: 3.88%

structure: Cc1cnn(CC2CCCN2Cc2nc3ccccc3n2C)c1 (stereo unspecified)
Mtb growth Cornell: 81.85%
Mtb heat-shock: 101.1%

structure: CCc1nc(C2CCCN2Cc2nccn2CC(F)(F)F)no1 (stereo unspecified)
Mtb heat-shock: -21.3%

structure: [H][C@]12CCN(C(=O)COC)CC[C@@]1([H])S(=O)(=O)N(Cc1cccc(Cl)c1)C2
Mtb growth Cornell: -4.753%
Mtb heat-shock: -4.902%

structure: Clc1cc(NCc2nccs2)nc2[nH]ccc12
Mtb growth Cornell: -1.118%
Mtb heat-shock: -41.79%

structure: COc1cccc(N2CCN(Cc3ccc4[nH]ccc4c3)CC2=O)c1
Mtb growth Cornell: 56.6%
Mtb heat-shock: 9.237%

structure: CCn1nnnc1-c1cccc(NCc2nc(C)ccc2O)c1
Mtb growth Cornell: 4.577%
Mtb heat-shock: -39.73%

structure: CN1CCN(C2CCN(CC(=O)NCC(F)(F)F)CC2)C1=O
Mtb growth Cornell: 23.11%
Mtb heat-shock: 11.38%

structure: [H][C@@]12CN(C)C[C@]1([H])N(CCc1ccc(OC)cc1)C(=O)O2
Mtb growth Cornell: 0.3174%
Mtb heat-shock: -38.13%

structure: Cn1c(CN2CCCC2)nnc1C1CCCN(C(=O)N2CCOCC2)C1 (stereo unspecified)
Mtb heat-shock: -4.954%

structure: CN(Cc1cnc2ccccc2c1)C(=O)C(c1ccccc1F)N(C)C (stereo unspecified)
Mtb growth Cornell: -2.134%
Mtb heat-shock: 2.667%

structure: c1cncc(CN(Cc2ccsc2)Cc2ccc(C3CCCCO3)o2)c1 (stereo unspecified)
Mtb growth Cornell: -38.59%
Mtb heat-shock: -1.455%

structure: CCC(NC(=O)C1CCN(S(C)(=O)=O)CC1)c1ccc(OC)c(C)c1 (stereo unspecified)
Mtb growth Cornell: -6.591%
Mtb heat-shock: 6.556%

structure: Cc1cnc(C(=O)N2CCC(C(=O)c3cc(F)ccc3F)CC2)cn1
Mtb heat-shock: 4.228%

structure: CC(=O)N1C[C@@H](F)[C@@H](OCc2nc3ccc(C#N)cc3[nH]2)C1
Mtb heat-shock: -39.85%

structure: Cn1cc(C(NCCc2ccccn2)c2cccc(F)c2)cn1 (stereo unspecified)
Mtb growth Cornell: 3.121%
Mtb heat-shock: -17.45%

structure: Cc1ccc(CNC2CCc3nc(C(C)C)nn3C2)o1 (stereo unspecified)
Mtb growth Cornell: -4.655%
Mtb heat-shock: 4.824%

structure: CCOc1nc2cccnc2n(CC(=O)NCCOC)c1=O
Mtb growth Cornell: 1.181%
Mtb heat-shock: 5.103%

structure: CC(C)(C)c1coc([C@@H]2COCCN2Cc2c[nH]cn2)n1
Mtb growth Cornell: 2.014%
Mtb heat-shock: -20.61%

structure: O=C(CNc1ccccc1S(=O)(=O)C(F)F)NCc1ccco1
Mtb growth Cornell: 17.48%
Mtb heat-shock: 33.63%

structure: Cc1ccc(-c2nc(CN3CCn4c(nnc4C4CC4)C3)co2)c(C)c1
Mtb growth Cornell: -16.63%
Mtb heat-shock: -11.61%

structure: O=C(CSCCN1CCOCC1)N1CCc2ccccc2C1
Mtb growth Cornell: 6.238%
Mtb heat-shock: -17.11%

structure: CN1CCN(CCc2ncnn2-c2ccc3c(c2)OCO3)CC1
Mtb growth Cornell: -5.009%
Mtb heat-shock: -23.17%

structure: O=C1CSC(c2ccncc2)c2c(n(C3CCOCC3)[nH]c2=O)N1 (stereo unspecified)
Mtb growth Cornell: -58.93%
Mtb heat-shock: -8.444%

structure: Cc1nc(C)n(CC2CCCN(CCC(=O)NC3CCCC3)C2)n1 (stereo unspecified)
Mtb heat-shock: -16.64%

structure: Cc1cn2nc(N3CCN(Cc4c(C)noc4C)CC3)sc2n1
Mtb growth Cornell: -2.682%
Mtb heat-shock: -3.12%

structure: O=C(NCCCN1CCOCC1)C1CCCN(Cc2ccco2)C1 (stereo unspecified)
Mtb growth Cornell: -4.254%
Mtb heat-shock: -32.81%

structure: O=C(CC1CCCO1)Nc1ccn(Cc2cccc3cccnc23)n1 (stereo unspecified)
Mtb growth Cornell: -3.12%
Mtb heat-shock: 12.21%

structure: Cn1cnc2c1CCN(CCCOc1ccc(C#N)cc1)C2
Mtb growth Cornell: -18.15%
Mtb heat-shock: -13.97%

structure: COCC1CC2(CCN(CC3CC3)CC2)CN1c1ncccn1.O=C(O)C(F)(F)F.O=C(O)C(F)(F)F (stereo unspecified)
Mtb growth Cornell: 11.32%
Mtb heat-shock: -27.49%

structure: CC(=O)N1CCCN(Cc2nnc(C(C)(C)C)o2)CC1
Mtb growth Cornell: -3.753%
Mtb heat-shock: 6.808%

structure: O=C(O)C(F)(F)F.O=C(c1cccnc1)N1CCc2ncnc(C3CCOC3)c2CC1 (stereo unspecified)
Mtb heat-shock: 8.544%

structure: CN1CCN(C(=O)c2cccc(CN3CCOCC3)c2)CC1
Mtb growth Cornell: -2.339%
Mtb heat-shock: -4.824%

From ChEMBL document CHEMBL3988442, “University of Dundee, Small-Polar-MMV Screening Library” (2021).